Measurements taken from patent US7517855B2 (Attenuon, LLC, priority 2002, dated 2009).
Non-standard residues stand in square brackets, D forms with d. *: point of attachment. Biotin = O=C1N[C@H]2[C@H](CS[C@H]2CCCCC(=O)*)N1; Met(O2) = CS(=O)(=O)CC[C@H](N)C(=O)O; Met(O) = CS(=O)CC[C@H](N)C(=O)O; Nicotinoyl = O=C(c1cccnc1)*; tBu = CC(C)(C)*

Columns and labels:
[1] = general procedure: Fmoc solid-phase peptide synthesis; Rink Amide AM resin (Novabiochem); HBTU/HOBt/NMM; conditions: for step yield: late stage modification step; for isolated yield: whole synthesis
[2] = general procedure: Fmoc solid-phase peptide synthesis; Fmoc-Asn-AM resin; HBTU/HOBt/NMM; conditions: whole synthesis, scale 200 mg resin, 0.41 mmol/g
[3] = test system: CD31 positive neo-vessels within the tumor; conditions: 50 μg via tail vein, 3LL cells in Matrigel, mice

In the case of Ac-Pro-His-Ser-HoCys(SOBn)-Asn-NH2, the step yield [1] is reported as 35.2%.
“Acetyl-Pro-His-Ser-Cys(4-MeO-Phenyl)-Asn-NH2” gave an isolated yield [1] of 50%.
Work on Ac-PHSC(Nicotinoyl)N-NH2 yielded a step yield [1] of 42.0%.
With Ac-His-His-Cys(SMe)-Asn-NH2 the isolated mass [2] was 23 mg and the isolated yield [2] was 49.7%.
With Acetyl-Pro-His-Ser-Cys(methyl)-NH2 the isolated yield [1] was 43%.
With Ac-PHS[Met(O2)]N-NH2 the isolated yield [1] was 88%.
For “Acetyl-Pro-His-Ser-Cys(4-methyl-benzyl)-Asn-NH2”, the isolated yield [1] was 99%.
Ac-PHS[Met(O)]N-NH2 showed an isolated yield [1] of 29%.
Substance Ac-His-Ser-Cys(SMe)-Asn-NH2 has an isolated mass [2] of 14.1 mg and an isolated yield [2] of 33.4%.
Substance Acetyl-Pro-His-Ser-Cys(benzyl)-Asn-NH2 has an isolated yield [1] of 97%.
With Ac-Pro-His-Ser-Cys(SO2Bn)-Asn-NH2 the step yield [1] was 68%.
In the case of Ac-PHSC(tBu)N-NH2, the isolated yield [1] is reported as 23%.
Substance Ac-Pro-His-Ser-HoCys(SO2Ph)-Asn-NH2 has a step yield [1] of 31.6%.
In the case of Ac-PFSCNGGK(Biotin)-NH2, the “persistence of association with tumor endothelium” value ([3]; four hours after injection) is reported as “remains associated to tumor endothelium four hours after injection” and the “localization of peptide in tumor (anti-biotin / anti-CD31 staining)” value ([3]; two hours after injection) is reported as “localized to CD31 positive neo-vessels within the tumor and not with other cells”.
